# From PubChem BioAssay AID540276 (National Center for Advancing Translational Sciences (NCATS), 2011)
# Hit rate of the full screen: of about 300,000 compounds, about 5,400 (1.8%) were called active. Inconclusive means that the source gave no clear call. Such entries were picked first, then a sample of the others. Calls come from the whole dose curve; tested in HEK293 cells. Potencies of inconclusive entries are doubtful fits and often do not repeat.
# Assay: qHTS for inhibitors of binding or entry into cells for Marburg Virus
# Settings: Marburg virus pseudotyped entry inhibition, cell reporter; activity change, negative = inhibition: at 37.8 µM (top of the series) unless noted
# % is set by controls: 0 for no effect and ±100 for the full control effect; potency is the fitted concentration of half-maximal effect.
SMILES,"activity change, negative = inhibition",Potency
COc1ccc(-n2nc(C(=O)NCC(=O)N3CCN(c4ccccc4OC)CC3)c3ccccc3c2=O)c(OC)c1,inactive: -3.25% [at 46.1 µM],
Oc1ccc(/C=N/n2c3ccccc3c3ccccc32)cc1,inactive: -4.34%,
CNC(=O)NC(=O)C(C)OC(=O)c1oc2ccccc2c1CSc1ccc(Cl)cc1 (stereo not drawn),,"inconclusive: 7.94 µM [inhibitor, partial curve, poor fit]"
O=S(=O)(c1ccc(Cl)cc1)N1CCCC1c1cccnc1 (stereo not drawn),inactive: 5.98%,
Cc1noc(C)c1-c1nc(CS(=O)(=O)c2ccccc2)no1,inactive: 13.4% [at 46.1 µM],
COc1ccccc1CN1CCNC(=O)C1CC(=O)NCCOc1cccnc1 (stereo not drawn),,"inconclusive: 1.26 µM [activator, full curve, poor fit]"
CCCCCCNC(=O)c1c(O)c2cccc3c2n(c1=O)CCC3,,"inconclusive: 35.5 µM [activator, single point]"
O=C(Nc1cc(Cl)cc(Cl)c1)c1coc(=O)c(Br)c1,,"inconclusive: 3.16 µM [activator, single point]"
CC1CCN(c2nc3nonc3nc2Nc2ccc(F)cc2)CC1,,"inconclusive: 35.5 µM [inhibitor, single point]"
COc1ccc(Br)cc1C(=O)Nc1cccc(NC(=O)c2ccco2)c1,,"inconclusive: 35.5 µM [inhibitor, single point]"
COc1ccc(NC(=O)CCCn2c(=O)c3sccc3n(Cc3ccccc3)c2=O)cc1,inactive: 5.67%,
CCOc1ccc(C(=O)Cn2cnc3ccccc3c2=O)cc1,,"inconclusive: 0.562 µM [activator, partial curve, poor fit]"
C[C@@H](C(=O)Nc1ccc2ccccc2c1)[C@H]1C[C@]1(C)[C@H](NS(=O)(=O)c1ccc(-c2ccccc2)cc1)c1ccccc1,,active: 11.6 µM
Cc1cc(C)c2nc(N(CCCN(C)C)C(=O)c3ccc4c(c3)OCCO4)sc2c1,,"inconclusive: 10 µM [inhibitor, partial curve, poor fit]"
Cc1cc(C)n2nc(SCC(=O)N/N=C/c3ccccn3)nc2n1,,"inconclusive: 3.55 µM [activator, partial curve]"
COc1ccc(S(=O)(=O)N2CN(Cc3ccco3)c3nc4ccccc4nc32)cc1,inactive: 0.971%,
O=C(Nc1ccn(Cc2c(F)c(F)c(F)c(F)c2F)n1)c1ccc(COc2ccccc2Cl)cc1,,"inconclusive: 25.9 µM [inhibitor, partial curve, poor fit]"
CCN1CCN(c2ccc(S(=O)(=O)N3CCCCC3)cc2NC(=O)c2ccc(OC(F)F)cc2)CC1,,"inconclusive: 35.5 µM [inhibitor, single point]"

# One compound at a time, as listed above.
# O=C(Nc1ccn(Cc2c(F)c(F)c(F)c(F)c2F)n1)c1ccc(COc2ccccc2Cl)cc1 is listed with Potency: inconclusive: 25.9 µM [inhibitor, partial curve, poor fit]
# Cc1cc(C)n2nc(SCC(=O)N/N=C/c3ccccn3)nc2n1 is listed with Potency: inconclusive: 3.55 µM [activator, partial curve]
